# The other results are listed elsewhere or left out.
# Sequences of proteins named here, by UniProt entry; tags and fusion partners are left off. A change or cut given only in a name is not applied to a line headed by its entry.
# UniProt P53778: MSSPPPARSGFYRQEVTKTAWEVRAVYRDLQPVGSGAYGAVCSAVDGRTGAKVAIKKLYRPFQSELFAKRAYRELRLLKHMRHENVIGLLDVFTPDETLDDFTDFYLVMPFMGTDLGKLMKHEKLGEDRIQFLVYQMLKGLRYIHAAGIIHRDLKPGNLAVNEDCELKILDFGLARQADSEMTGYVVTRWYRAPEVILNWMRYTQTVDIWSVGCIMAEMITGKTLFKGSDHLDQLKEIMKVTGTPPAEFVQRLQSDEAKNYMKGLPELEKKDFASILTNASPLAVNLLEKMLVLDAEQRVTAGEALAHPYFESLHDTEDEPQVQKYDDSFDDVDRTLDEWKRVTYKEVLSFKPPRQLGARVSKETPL
# UniProt Q99759: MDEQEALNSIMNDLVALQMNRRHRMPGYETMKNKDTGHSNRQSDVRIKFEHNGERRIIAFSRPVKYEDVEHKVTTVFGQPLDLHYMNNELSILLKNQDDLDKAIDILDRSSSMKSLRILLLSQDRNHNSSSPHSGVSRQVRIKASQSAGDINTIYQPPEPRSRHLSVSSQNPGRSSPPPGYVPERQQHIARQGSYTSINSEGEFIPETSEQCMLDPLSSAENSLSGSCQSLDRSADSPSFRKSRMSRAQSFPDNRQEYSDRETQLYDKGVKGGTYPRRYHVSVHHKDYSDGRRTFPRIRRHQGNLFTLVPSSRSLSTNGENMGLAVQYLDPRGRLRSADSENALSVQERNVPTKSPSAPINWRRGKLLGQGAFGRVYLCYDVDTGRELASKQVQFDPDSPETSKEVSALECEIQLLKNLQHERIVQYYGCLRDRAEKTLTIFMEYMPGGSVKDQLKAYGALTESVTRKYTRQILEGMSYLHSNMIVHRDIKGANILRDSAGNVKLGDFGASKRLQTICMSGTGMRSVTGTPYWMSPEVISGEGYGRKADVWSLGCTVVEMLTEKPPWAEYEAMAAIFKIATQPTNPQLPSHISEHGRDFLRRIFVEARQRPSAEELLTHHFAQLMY
# UniProt Q9Y4F3: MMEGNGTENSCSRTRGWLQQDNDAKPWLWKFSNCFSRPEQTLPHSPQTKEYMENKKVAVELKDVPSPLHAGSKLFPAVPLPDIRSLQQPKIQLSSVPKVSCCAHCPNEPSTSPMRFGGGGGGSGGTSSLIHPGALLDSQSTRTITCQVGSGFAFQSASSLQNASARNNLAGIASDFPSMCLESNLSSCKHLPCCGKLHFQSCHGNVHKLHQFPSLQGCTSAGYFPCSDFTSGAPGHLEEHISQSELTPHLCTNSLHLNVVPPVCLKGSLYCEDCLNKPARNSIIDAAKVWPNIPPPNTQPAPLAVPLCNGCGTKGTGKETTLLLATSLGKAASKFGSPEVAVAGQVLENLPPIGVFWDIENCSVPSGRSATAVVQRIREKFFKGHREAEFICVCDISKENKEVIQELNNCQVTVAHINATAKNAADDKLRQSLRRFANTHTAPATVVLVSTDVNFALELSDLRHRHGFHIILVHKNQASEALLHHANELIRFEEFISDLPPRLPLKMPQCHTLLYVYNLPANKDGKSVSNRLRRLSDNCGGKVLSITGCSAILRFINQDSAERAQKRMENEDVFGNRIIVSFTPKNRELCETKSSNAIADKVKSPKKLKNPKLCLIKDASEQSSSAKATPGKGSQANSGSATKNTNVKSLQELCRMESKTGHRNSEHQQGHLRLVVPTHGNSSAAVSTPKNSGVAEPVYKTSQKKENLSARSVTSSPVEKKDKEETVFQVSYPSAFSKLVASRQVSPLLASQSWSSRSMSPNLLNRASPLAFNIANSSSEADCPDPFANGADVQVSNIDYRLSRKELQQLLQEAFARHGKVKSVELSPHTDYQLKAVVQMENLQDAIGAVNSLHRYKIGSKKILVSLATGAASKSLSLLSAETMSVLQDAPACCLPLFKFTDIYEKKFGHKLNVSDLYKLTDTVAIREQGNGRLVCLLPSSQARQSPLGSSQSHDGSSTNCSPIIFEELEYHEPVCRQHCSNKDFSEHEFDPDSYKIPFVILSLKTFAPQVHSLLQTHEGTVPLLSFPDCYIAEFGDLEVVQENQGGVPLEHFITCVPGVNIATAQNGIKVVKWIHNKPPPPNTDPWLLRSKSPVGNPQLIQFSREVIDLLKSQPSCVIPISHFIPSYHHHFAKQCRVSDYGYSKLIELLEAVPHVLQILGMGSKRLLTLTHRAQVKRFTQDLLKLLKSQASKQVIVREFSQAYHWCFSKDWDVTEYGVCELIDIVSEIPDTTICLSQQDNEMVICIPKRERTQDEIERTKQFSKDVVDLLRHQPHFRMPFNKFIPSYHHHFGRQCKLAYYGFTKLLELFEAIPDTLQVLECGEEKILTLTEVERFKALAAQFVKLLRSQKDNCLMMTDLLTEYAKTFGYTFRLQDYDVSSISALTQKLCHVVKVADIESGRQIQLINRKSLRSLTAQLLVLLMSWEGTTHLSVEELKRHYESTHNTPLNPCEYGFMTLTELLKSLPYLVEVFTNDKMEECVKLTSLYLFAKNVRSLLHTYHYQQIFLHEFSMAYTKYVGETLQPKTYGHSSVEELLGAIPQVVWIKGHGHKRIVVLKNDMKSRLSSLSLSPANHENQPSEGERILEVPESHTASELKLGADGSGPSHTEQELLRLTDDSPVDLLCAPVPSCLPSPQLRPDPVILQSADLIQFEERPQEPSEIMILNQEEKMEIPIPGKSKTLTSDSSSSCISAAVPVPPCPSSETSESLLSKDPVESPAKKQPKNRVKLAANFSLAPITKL
# UniProt Q92585: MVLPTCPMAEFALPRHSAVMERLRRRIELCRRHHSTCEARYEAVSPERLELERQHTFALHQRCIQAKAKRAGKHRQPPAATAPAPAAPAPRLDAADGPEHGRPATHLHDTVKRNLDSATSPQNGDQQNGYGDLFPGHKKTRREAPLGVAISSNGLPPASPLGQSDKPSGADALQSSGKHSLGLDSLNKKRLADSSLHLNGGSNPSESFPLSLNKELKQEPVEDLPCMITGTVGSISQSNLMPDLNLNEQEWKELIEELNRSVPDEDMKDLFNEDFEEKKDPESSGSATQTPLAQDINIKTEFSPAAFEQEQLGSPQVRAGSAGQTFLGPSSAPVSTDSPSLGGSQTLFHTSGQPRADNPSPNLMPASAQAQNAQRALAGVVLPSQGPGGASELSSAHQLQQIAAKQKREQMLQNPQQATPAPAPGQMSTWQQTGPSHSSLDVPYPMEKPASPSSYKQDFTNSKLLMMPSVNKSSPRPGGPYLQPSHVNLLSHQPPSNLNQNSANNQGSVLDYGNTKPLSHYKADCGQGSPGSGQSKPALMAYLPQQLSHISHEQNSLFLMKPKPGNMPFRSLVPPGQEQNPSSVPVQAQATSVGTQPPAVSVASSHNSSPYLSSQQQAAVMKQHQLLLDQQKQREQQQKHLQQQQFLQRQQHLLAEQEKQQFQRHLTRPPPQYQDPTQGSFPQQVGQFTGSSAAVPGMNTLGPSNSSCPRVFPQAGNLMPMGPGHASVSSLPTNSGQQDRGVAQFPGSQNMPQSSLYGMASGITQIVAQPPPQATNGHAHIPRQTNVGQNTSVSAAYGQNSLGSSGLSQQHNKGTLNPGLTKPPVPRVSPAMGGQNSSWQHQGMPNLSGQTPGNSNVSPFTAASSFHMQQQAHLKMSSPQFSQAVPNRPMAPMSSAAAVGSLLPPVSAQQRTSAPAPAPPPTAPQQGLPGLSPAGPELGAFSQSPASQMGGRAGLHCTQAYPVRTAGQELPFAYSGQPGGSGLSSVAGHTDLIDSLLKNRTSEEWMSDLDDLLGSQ
# UniProt P43360, whole entry, looked up: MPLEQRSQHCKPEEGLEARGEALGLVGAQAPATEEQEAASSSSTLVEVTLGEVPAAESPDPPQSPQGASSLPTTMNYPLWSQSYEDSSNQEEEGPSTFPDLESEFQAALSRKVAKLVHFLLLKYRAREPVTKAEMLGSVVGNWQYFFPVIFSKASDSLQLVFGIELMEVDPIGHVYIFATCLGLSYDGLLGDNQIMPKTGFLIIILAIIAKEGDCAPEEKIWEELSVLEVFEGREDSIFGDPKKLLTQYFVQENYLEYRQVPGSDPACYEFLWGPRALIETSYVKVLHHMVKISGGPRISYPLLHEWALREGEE
# UniProt P07948: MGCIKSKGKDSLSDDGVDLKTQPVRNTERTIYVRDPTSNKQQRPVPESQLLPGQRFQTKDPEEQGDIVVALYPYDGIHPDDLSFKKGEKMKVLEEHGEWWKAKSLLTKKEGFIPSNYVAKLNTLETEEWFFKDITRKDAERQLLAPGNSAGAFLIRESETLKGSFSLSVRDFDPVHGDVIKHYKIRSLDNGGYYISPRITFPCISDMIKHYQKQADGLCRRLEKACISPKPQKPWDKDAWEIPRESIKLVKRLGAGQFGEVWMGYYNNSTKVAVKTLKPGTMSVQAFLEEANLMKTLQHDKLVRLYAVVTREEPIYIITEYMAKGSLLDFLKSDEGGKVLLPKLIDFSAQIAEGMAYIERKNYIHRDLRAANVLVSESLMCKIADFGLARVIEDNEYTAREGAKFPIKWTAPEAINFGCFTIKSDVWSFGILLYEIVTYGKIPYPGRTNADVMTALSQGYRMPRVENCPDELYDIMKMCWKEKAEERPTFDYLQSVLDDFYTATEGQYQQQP
# UniProt Q13233: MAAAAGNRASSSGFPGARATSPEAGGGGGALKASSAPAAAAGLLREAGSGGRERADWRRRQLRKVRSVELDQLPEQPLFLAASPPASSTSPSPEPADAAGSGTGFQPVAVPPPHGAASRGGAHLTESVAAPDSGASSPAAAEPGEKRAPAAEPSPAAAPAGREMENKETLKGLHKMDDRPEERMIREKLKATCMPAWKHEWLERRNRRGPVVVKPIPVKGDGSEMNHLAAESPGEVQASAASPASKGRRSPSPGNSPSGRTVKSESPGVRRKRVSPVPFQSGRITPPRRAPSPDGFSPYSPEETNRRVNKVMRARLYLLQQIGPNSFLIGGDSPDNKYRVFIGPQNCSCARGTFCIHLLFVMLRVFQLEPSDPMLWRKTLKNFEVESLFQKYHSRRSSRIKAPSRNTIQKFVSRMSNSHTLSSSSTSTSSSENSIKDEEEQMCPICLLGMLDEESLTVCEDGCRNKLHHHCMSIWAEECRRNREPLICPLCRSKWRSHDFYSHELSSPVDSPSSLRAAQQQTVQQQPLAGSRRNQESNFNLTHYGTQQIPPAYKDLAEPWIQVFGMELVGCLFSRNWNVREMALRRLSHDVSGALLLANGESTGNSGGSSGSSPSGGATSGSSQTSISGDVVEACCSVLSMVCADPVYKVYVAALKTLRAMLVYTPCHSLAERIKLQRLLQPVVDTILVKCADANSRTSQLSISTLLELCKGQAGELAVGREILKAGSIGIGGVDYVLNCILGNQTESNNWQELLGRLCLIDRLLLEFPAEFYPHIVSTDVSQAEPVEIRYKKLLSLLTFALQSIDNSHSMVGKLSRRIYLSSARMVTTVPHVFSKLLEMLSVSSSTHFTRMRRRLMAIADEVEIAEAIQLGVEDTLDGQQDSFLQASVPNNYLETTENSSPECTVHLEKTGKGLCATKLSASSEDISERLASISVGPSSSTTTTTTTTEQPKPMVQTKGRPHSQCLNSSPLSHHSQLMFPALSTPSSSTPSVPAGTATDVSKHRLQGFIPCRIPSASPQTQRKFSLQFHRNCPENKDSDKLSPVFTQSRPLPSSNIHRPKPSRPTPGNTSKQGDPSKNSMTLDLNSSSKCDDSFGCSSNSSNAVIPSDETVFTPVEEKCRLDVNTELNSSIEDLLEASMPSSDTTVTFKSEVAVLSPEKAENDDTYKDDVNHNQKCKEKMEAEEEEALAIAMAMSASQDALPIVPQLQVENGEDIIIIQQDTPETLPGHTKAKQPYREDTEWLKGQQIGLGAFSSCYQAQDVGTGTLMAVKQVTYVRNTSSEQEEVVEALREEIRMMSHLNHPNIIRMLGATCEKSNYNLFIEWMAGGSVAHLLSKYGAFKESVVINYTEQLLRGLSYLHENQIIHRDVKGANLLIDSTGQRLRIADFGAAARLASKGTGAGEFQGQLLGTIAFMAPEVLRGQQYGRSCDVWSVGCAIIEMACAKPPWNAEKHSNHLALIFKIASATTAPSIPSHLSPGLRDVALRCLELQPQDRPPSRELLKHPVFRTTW
# UniProt P12980: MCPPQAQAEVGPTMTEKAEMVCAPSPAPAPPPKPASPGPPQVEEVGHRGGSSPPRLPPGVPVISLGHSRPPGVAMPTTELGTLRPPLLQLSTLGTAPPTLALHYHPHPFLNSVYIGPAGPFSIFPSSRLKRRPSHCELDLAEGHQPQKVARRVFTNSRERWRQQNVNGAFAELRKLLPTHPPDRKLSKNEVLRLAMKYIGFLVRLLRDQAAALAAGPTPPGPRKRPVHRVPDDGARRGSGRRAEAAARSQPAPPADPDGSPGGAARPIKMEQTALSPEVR
# UniProt Q8WV07: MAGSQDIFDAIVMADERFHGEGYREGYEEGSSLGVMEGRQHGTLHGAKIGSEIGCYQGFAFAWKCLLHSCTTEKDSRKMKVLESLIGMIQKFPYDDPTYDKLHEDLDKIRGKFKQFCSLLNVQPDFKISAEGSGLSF
# Compound: Cn1cc(CNCC2CCN(c3ncc(C(=O)NO)cn3)CC2)c2ccccc21 [quisinostat]
# Assay: log2 fold change, soluble protein after heating vs DMSO (PISA); higher = thermal stabilisation; K562 lysate, 10 uM; active = over 0.2 and 3.5 SD of the protein, either way, in both replicates (recomputed)
# Procedure, shortened: (§1)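 Following dounce homogenisation of K562 pellets in PBS pH 7.4 with 1 mM MgCl2, crude extract at 1 mg/mL protein was incubated for 30 min with 10 μM compound. Aliquots were then heated for 3 min over 48°C-58°C and pooled, NP-40 was added to 0.5% at 4°C, and soluble protein was recovered as the supernatant at 21,000xg for 90 min. Channel-sum-equalised TMTpro 16plex LC-MS/MS quantified this protein. Each value, from duplicates, is a log-two fold change in thermal stability relative to solvent controls.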
row,Target,log2 fold change
1,MAPK12 (UniProt P53778),inactive: 0.051
2,MAP3K3 isoform 2 (UniProt Q99759),inactive: 0.057
3,MARF1 (UniProt Q9Y4F3),inactive: -0.053
4,MAML1 (UniProt Q92585),inactive: 0.015
5,"MACF1, A0A0A6YYJ5",inactive: -0.11
6,MAGEA6 (UniProt P43360),inactive: -0.068
7,LYN isoform 2 (UniProt P07948),inactive: -0.111
8,LYRM1 (UniProt O43325),inactive: 0.198
9,MAP3K1 (UniProt Q13233),inactive: -0.02
10,LYL1 (UniProt P12980),inactive: -0.101
11,LTBP4 isoform 2 (UniProt Q8N2S1),inactive: 0.047
12,MAP3K2 (UniProt Q9Y2U5),inactive: -0.21
13,MAPK15 (UniProt Q8TD08),inactive: -0.409
14,MAGEA3 (UniProt P43357),inactive: -0.019
15,MAP3K4 isoform 2 (UniProt Q9Y6R4),inactive: 0.009
16,MAPKAP1 (UniProt Q9BPZ7),inactive: -0.087
17,MAP4K3 (UniProt Q8IVH8),inactive: 0.002
18,MAGEA12 (UniProt P43365),inactive: 0.099
19,LTO1 (UniProt Q8WV07),inactive: 0.066

# Compound: Cn1cncc1[C@@](N)(c1ccc(Cl)cc1)c1ccc2c(c1)c(-c1cccc(Cl)c1)cc(=O)n2C [tipifarnib]
# Assay: as above
# Procedure, shortened: as §1
row,Target,log2 fold change
1,MAPK12 (UniProt P53778),inactive: -0.005
2,MAP3K3 isoform 2 (UniProt Q99759),inactive: -0.003
3,MAPK3 (UniProt H0YEX6),inactive: 0.097
4,MARF1 (UniProt Q9Y4F3),inactive: -0.062
5,MAML1 (UniProt Q92585),inactive: -0.028
6,"MACF1, A0A0A6YYJ5",inactive: 0.104
7,MAP3K6 (UniProt O95382),inactive: -0.011
8,LYN isoform 2 (UniProt P07948),inactive: -0.615
9,MAP3K1 (UniProt Q13233),inactive: -0.02
10,MAPK15 (UniProt Q8TD08),inactive: -0.076
11,MAPKAP1 (UniProt Q9BPZ7),inactive: -0.056
12,LTBP1 isoform 4 (UniProt Q14766),inactive: -0.119
13,LTO1 (UniProt Q8WV07),inactive: 0.237

# Compound: NC(=O)Nc1cc(-c2cccc(F)c2)sc1C(=O)N[C@H]1CCCNC1
# Assay: as above
# Procedure, shortened: as §1
row,Target,log2 fold change
1,MAPK12 (UniProt P53778),inactive: -0.015
2,MAP3K3 isoform 2 (UniProt Q99759),inactive: 0.092
3,MARF1 (UniProt Q9Y4F3),inactive: 0.088
4,MAML1 (UniProt Q92585),inactive: 0.031
5,"MACF1, A0A0A6YYJ5",inactive: 0.01
6,MAGEA6 (UniProt P43360),inactive: 0.193
7,LYN isoform 2 (UniProt P07948),inactive: 0.748
8,LYRM1 (UniProt O43325),inactive: 0.139
9,MAP3K1 (UniProt Q13233),inactive: 0.101
10,LYL1 (UniProt P12980),inactive: 0.076
11,LTBP4 isoform 2 (UniProt Q8N2S1),inactive: 0
12,MAP3K2 (UniProt Q9Y2U5),inactive: 0.124
13,MAPK15 (UniProt Q8TD08),inactive: -0.024
14,MAGEA3 (UniProt P43357),inactive: -0.023
15,MAP3K4 isoform 2 (UniProt Q9Y6R4),inactive: 0.112
16,MAPKAP1 (UniProt Q9BPZ7),inactive: 0.042
17,MAP4K3 (UniProt Q8IVH8),inactive: 0.602
18,MAGEA12 (UniProt P43365),inactive: 0.066
19,LTO1 (UniProt Q8WV07),inactive: -0.023

# Compound: NC1(c2ccc(-c3nc4ccn5c(=O)[nH]nc5c4cc3-c3ccccc3)cc2)CCC1
# Assay: as above
# Procedure, shortened: as §1
row,Target,log2 fold change
1,MAGEF1 (UniProt Q9HAY2),inactive: -0.483
2,MAPK12 (UniProt P53778),inactive: -0.044
3,MAP3K3 isoform 2 (UniProt Q99759),inactive: -0.123
4,MARF1 (UniProt Q9Y4F3),inactive: -0.035
5,MAML1 (UniProt Q92585),inactive: 0.083
6,"MACF1, A0A0A6YYJ5",inactive: -0.008
7,MAGEA6 (UniProt P43360),inactive: -0.107
8,LYN isoform 2 (UniProt P07948),inactive: -0.053
9,LYRM1 (UniProt O43325),inactive: 0.083
10,MARVELD1 (UniProt Q9BSK0),inactive: 0.066
11,LYL1 (UniProt P12980),inactive: 0.131
12,MAP3K2 (UniProt Q9Y2U5),inactive: 0.018
13,MAPK15 (UniProt Q8TD08),inactive: -0.163
14,MAPKAP1 (UniProt Q9BPZ7),inactive: -0.093
15,LTBP1 isoform 4 (UniProt Q14766),inactive: 0.056
16,LTO1 (UniProt Q8WV07),inactive: -0.035

# — the supplement of paper PMC10849652
